The list shows a part of the results. Further columns of the screen follow, without active or inactive calls. Most of these compounds were active or inconclusive in the main read-out, so they are no random draw. Potencies come from curve fits of mixed quality, noted in brackets.
Assay: qHTS Assay for Lipid Storage Modulators in Drosophila S3 Cells;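 as to cell number change: cells counted by Cell Tracker Red CMTPX staining in the red channel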
Conditions: BODIPY lipid droplet fluorescence, 18-24 h; for cell number change: measured here: cell count max response, cells fed with added oleic acid
Method in brief: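 Drosophila S3 cells got compounds at several concentrations plus oleic acid (400 uM solution). Laser-scanning cytometry with 488 nm excitation read lipid droplets at 500-530 nm and cells at 575-640 nm. Percent activity was relative to 20 uM Triacsin C.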

[1] = measured here: lipid fluorescence (Fed channel) AC50, cells fed with added oleic acid
[2] = measured here: cell number channel AC50, cells fed with added oleic acid

| SMILES | cell number change | AC50 [1] | AC50 [2] |
| --- | --- | --- | --- |
| Cc1cccc(NC(=O)CN(C)S(=O)(=O)c2cccs2)c1 | -19.1% | 1.84 µM [rising, partial curve] | – |
| Cc1ccc(C(=O)NCc2ccc3c(c2)OCO3)cc1S(=O)(=O)N1CCCCC1 | – | – | 0.731 µM [rising, partial curve, poor fit] |
| COc1ccccc1C(=O)Nc1ccc(S(=O)(=O)Nc2cnc3ccccc3n2)cc1 | -2.78% | 29.1 µM [falling, partial curve, poor fit] | – |
| Cc1ccc(SCC(=O)Nc2ccc(N3CCN(c4ccccc4)CC3)c(F)c2)cc1 | 22.2% | – | – |
| CCCOC1CCCN(C(=O)CCc2nnc(CCCCc3ccccc3)o2)C1 (stereo unspecified) | -14.4% | 6.51 µM [falling, single point] | – |
| COc1ccc(OC)c(CN2CCN(C(=O)CCC(=O)c3cccs3)CC2)c1 | 39.9% | 14.6 µM [rising, partial curve] | 14.6 µM [rising, partial curve] |
| Cc1ccc(C(=O)CSC2=C(C#N)C(c3ccco3)C3=C(CCCC3=O)N2)cc1 (stereo unspecified) | -20.3% | 1.16 µM [rising, single point] | – |
| O=C(NC(c1ccc(Cl)cc1)c1c(O)ccc2ccccc12)c1ccccc1 (stereo unspecified) | -65.4% | 1.03 µM [falling, full curve] | 0.291 µM [falling, full curve, poor fit] |
| O=C(NC1CCCC1)c1cccc2c1C(=O)c1ccc(N3CCCCC3)cc1S2(=O)=O | -49.5% | – | 5.8 µM [falling, full curve] |
| O=C(NCCCc1ccc(F)cc1)C1CCC(=O)N(CCN2CCOCC2)C1 (stereo unspecified) | 24.8% | 5.17 µM [falling, partial curve] | – |
| Nc1ccn(-c2ncc(C(F)(F)F)cc2Cl)c(=O)n1 | 15.4% | – | 0.411 µM [falling, single point] |
| COc1ccc(Cc2nnc(NC(=O)CSc3ccc(C)cc3)s2)cc1OC | -38.1% | 4.11 µM [falling, partial curve] | 1.16 µM [falling, full curve] |
| COc1cc([N+](=O)[O-])ccc1NC(=S)NC(=O)CC(C)(C)C | 34.5% | 23.1 µM [rising, partial curve] | – |
| CCN(C(=O)c1cccc(Br)c1)C1CCS(=O)(=O)C1 (stereo unspecified) | -8.34% | – | – |
| O=C(CNC(=O)c1ccc(OC(F)F)cc1)Nc1cccc(S(=O)(=O)N2CCCC2)c1 | -50% | – | 4.61 µM [falling, partial curve, poor fit] |
| CCOc1ccc(C(O)c2nccn2Cc2ccccc2)cc1 (stereo unspecified) | 1.08% | 6.51 µM [rising, single point] | – |
| COc1ccc(C2(C(=O)Nc3nncs3)CCCC2)cc1 | – | 5.8 µM [falling, partial curve] | – |
| Cc1c(C(=O)OC2CCCC2)[nH]c2c1C(=O)CC(c1ccco1)C2 (stereo unspecified) | – | – | 6.51 µM [rising, single point] |
| COc1cc2c(cc1OC)CN(C(=O)CSc1n[nH]c(N)n1)CC2 | – | – | 2.06 µM [rising, single point] |
| COc1ccc(N2CC(C(=O)NC3CC(C)(C)NC(C)(C)C3)CC2=O)cc1 (stereo unspecified) | 21% | 29.1 µM [falling, single point] | – |

No new results follow: entries from further up.

| SMILES | cell number change | AC50 [1] | AC50 [2] |
| --- | --- | --- | --- |
| CCN(C(=O)c1cccc(Br)c1)C1CCS(=O)(=O)C1 (stereo unspecified) | -8.34% | – | – |
| O=C(CNC(=O)c1ccc(OC(F)F)cc1)Nc1cccc(S(=O)(=O)N2CCCC2)c1 | -50% | – | 4.61 µM [falling, partial curve, poor fit] |
| CCOc1ccc(C(O)c2nccn2Cc2ccccc2)cc1 (stereo unspecified) | 1.08% | 6.51 µM [rising, single point] | – |
| COc1ccc(C2(C(=O)Nc3nncs3)CCCC2)cc1 | – | 5.8 µM [falling, partial curve] | – |

Further structures.

| SMILES | cell number change | AC50 [1] | AC50 [2] |
| --- | --- | --- | --- |
| CSc1ccc2c(c1)C(N1CCN(C)CC1)Cc1ccccc1S2 (stereo unspecified) | -19.9% | 7.31 µM [falling, partial curve] | – |
| CC(C)CC(c1nnnn1C1CCCCC1)N1CCN(c2ncccn2)CC1 (stereo unspecified) | 0.0687% | 0.116 µM [falling, single point] | – |
| Cc1ccc2nc3c(cc(C(=O)NCc4ccco4)c(=N)n3C3CCCC3)c(=O)n2c1 | 10.5% | – | – |
| Cc1ccc(Nc2cc(C)nc3ccc(C)cc23)cc1 | -10.2% | 18.4 µM [falling, single point] | – |
| CC(C(=O)NCC1CCCCC1)N1CCN(S(=O)(=O)c2ccccc2F)CC1 (stereo unspecified) | -16.7% | 4.11 µM [falling, full curve, poor fit] | 6.51 µM [falling, single point] |
| CCOC(=O)C(NC(=O)c1cccnc1)(Nc1cccc(C)n1)C(F)(F)F (stereo unspecified) | -4.42% | – | – |
| C=CCN1CCN(C(=O)c2ccc3c(c2)OCO3)CC1 | 22.1% | 0.0731 µM [rising, full curve] | – |
| CC(C)c1ccccc1OCC(=O)Nc1ccc2[nH]ncc2c1 | -27.1% | 6.51 µM [rising, single point] | – |
| Cc1c(C(=O)NCc2cccs2)oc2ccc(Br)cc12 | 6.71% | – | – |
| CCNC(=O)N1CCN(S(=O)(=O)c2ccc3c(c2)OCCCO3)CC1 | 13.1% | 2.06 µM [rising, single point] | – |
| O=C(N/C(=C\c1cccnc1)C(=O)N1CCC(O)CC1)c1ccccc1 | 21.8% | 0.206 µM [rising, single point] | – |
| COc1ccc(OC)c(NC2=NC3(CCCCC3)N=C(N)N2)c1 | -0.547% | 4.11 µM [falling, full curve, poor fit] | – |
| CCOC(=O)Cn1c(C)c(Br)c(COC)c(C#N)c1=O | 19.4% | 29.1 µM [rising, single point] | 1.16 µM [rising, full curve, poor fit] |
| C/C(N)=C(/C#N)C(=O)COC(=O)CCS(=O)(=O)c1ccccc1 | -39.7% | 18.4 µM [falling, partial curve] | 5.17 µM [falling, full curve] |
| CCOC(=O)c1c(NC(=O)c2ccoc2C)sc(C)c1C | 28% | 1.64 µM [rising, partial curve] | 1.16 µM [rising, full curve, poor fit] |
| NS(=O)(=O)c1ccc(CCNC(=O)c2ccc(Cl)cc2[N+](=O)[O-])cc1 | 18.5% | – | – |
| Cc1cccc(C(=O)OCC(=O)Nc2c(C)nn(-c3ccccc3)c2C)c1O | -50% | – | 29.1 µM [falling, single point] |
| Cc1ccc(C2=NN3C(C(=O)c4ccccc4)Oc4ccccc4C3C2)cc1 (stereo unspecified) | -5.07% | – | – |
| O=C1C2CC=CCC2C(=O)N1c1ccc(NCCc2cccc(F)c2)c([N+](=O)[O-])c1 (stereo unspecified) | 7.43% | 0.651 µM [rising, full curve, poor fit] | – |
| COC(=O)C(NC(=O)CCc1c(C)nc2ncnn2c1C)C(C)C (stereo unspecified) | 17.6% | 29.1 µM [falling, single point] | – |

| SMILES | cell number change | AC50 [1] | AC50 [2] |
| --- | --- | --- | --- |
| COc1ccc(/C=N/NC(=O)c2ccccc2OCc2ccccc2)c(OC)c1 | 13.6% | – | – |
| O=C(Nc1ccc(OC(F)F)c(Cl)c1)Nc1ccc2c(c1)OCO2 | 10.6% | – | 0.058 µM [rising, full curve, poor fit] |
| CCc1cc(C(=O)N2CCN(c3ccccn3)CC2)sc1C | -3.19% | 32.6 µM [falling, single point] | – |
| CCCCN1C(=O)/C(=C/C=C2/CC(C)(C)CN2C)SC1=S | – | 5.8 µM [falling, full curve, poor fit] | – |
| COCCNC(=O)Cc1c(C)c2c(cc(C)c3c(C(C)(C)C)coc32)oc1=O | -54.8% | 9.2 µM [falling, partial curve] | 11.6 µM [falling, partial curve] |
| O=C(Nc1ccccc1Cl)c1ccn[nH]1 | -7.9% | – | – |
| COC(=O)c1sc(N)c(C(=O)OC)c1COC(=O)CNS(=O)(=O)c1ccc(C)cc1 | 20.6% | 4.61 µM [rising, partial curve] | – |
| O=c1c2ccccc2ncn1Cc1ccco1 | -16.1% | 0.0058 µM [falling, full curve, poor fit] | – |
| CC(C)c1ccc(NC(=O)C2CC(=O)N(C(C)C)C2)cc1 (stereo unspecified) | -14.1% | 6.51 µM [falling, single point] | 0.231 µM [falling, full curve, poor fit] |
| COC(=O)c1c(NC(=O)Cc2cccs2)sc2c1CCC(C)C2 (stereo unspecified) | – | 0.206 µM [rising, full curve] | 0.0731 µM [rising, full curve] |
| O=C(CCN1CCc2ccccc2C1)Nc1ccc2c(c1)OCO2 | 138% | 29.1 µM [rising, partial curve] | 13 µM [rising, partial curve] |
| CCCCN(C(=O)c1ccc(-c2ccc(Cl)cc2)o1)c1c(N)n(CCCC)c(=O)[nH]c1=O | -32.8% | – | 25.9 µM [falling, partial curve, poor fit] |
| Cc1ccccc1NC(=O)Cc1nc(COC(=O)c2nc(Cl)ccc2Cl)cs1 | 12.3% | 6.51 µM [rising, full curve, poor fit] | – |
| CC(C)Oc1ccc(Cc2n[nH]c(=S)n2Cc2ccccc2)cc1Cl | 5.08% | – | – |
| CCN(CC)C(=S)SCC(=O)Nc1ccc(S(N)(=O)=O)cc1 | 25.9% | – | – |
| Cc1ccc(C(=O)N2CCCC(C(=O)c3ccc(Oc4ccccc4)cc3)C2)cn1 (stereo unspecified) | -42.6% | 14.6 µM [falling, partial curve] | 20.6 µM [falling, partial curve, poor fit] |
| CC(=O)c1sc(NC(=O)c2cc(-c3ccccc3)nn2-c2ccccc2)nc1C | 32.5% | 10.3 µM [rising, partial curve, poor fit] | 2.31 µM [rising, full curve] |
| CC1CCCCC1NC(=O)COC(=O)CN1C(=O)c2ccccc2C1=O (stereo unspecified) | 25.6% | – | – |
| COc1ccc2[nH]cc(C(=O)CCl)c2c1 | -37.9% | 20.6 µM [falling, single point] | 18.4 µM [falling, single point] |
| CC1CCC(NS(=O)(=O)c2ccc(Cl)nc2)CC1 (stereo unspecified) | -25% | 0.00517 µM [falling, full curve, poor fit] | – |
